Measurements from publication PMC7343282, “Tissue Distribution of Several Series of Cationic Surfactants in Rainbow Trout (Oncorhynchus mykiss) Following Exposure via Water” (Environmental Science & Technology, 2020).

Experiment: Measured concentration in aquarium water
Details: for Concentration in water: mean concentration in aquarium water; for concentration in aquarium, % of intended: measured relative to intended concentration

SMILES | Concentration in water [ng mL^–1] | concentration in aquarium, % of intended [%]
CCCCCCCCCCCCCCN(C)C [T14, N,N-dimethyltetradecylamine] | 0.49 | 20
CCCCCCCCCN(C)C [T9, N,N-dimethylnonylamine] | 52 | 104
CCCCCCCCCCCCCN [P13, tridecylamine] | 3.7 | 37
CCCCCCCCCCN(C)C [T10, N,N-dimethyldecylamine] | 21 | 82
CCCCCCCCCC[N+](C)(C)C [Q10, N,N,N-trimethyl-1-decylammonium] | 59 | 118
CCCCCCCCCCCCN [P12, Dodecylamine] | 12 | 47
CCCCCCCCCCCCCCCCNC [S16, N-methylhexadecylamine] | 0.93 | 37
CCCCCCCCCCCCNC [S12, N-methyldodecylamine] | 17 | 67
CCCCCCCCCN [P9, Nonylamine] | 46 | 92
CCCCCCCCCCCCCN(C)C [T13, N,N-dimethyltridecylamine] | 3.1 | 31
CCCCCCCCCCCCCC[N+](C)(C)C [Q14, N,N,N-trimethyl-1-tetradecylammonium] | 1.3 | 50
